Values quoted from earlier work in patent publication US8952169B2 (Genentech, Inc., priority 2012, dated 2015).

Settings: administered topically (a Lidoderm patch); cited from earlier work

CCN(CC)CC(=O)Nc1c(C)cccc1C [lidocaine]
plasma concentrations: about 1 μM
